PubChem BioAssay AID652243, Drosophila RNAi Screening Center – 2013
Aim: 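Knock-downs that decrease or increase androgen receptor reporter signal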 (primary screen). System: Drosophila S2R+ cells. Knock-down reagent: long dsRNA against Drosophila genes. Time to read-out: 72 h (48 h, then 24 h hormone). Conditions: synthetic androgen R1881 at 10 nM for 24 h. Read-out: 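Per-well raw luminescence of the androgen-driven firefly reporter and of the Renilla control, two replicates each, without normalisation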. Direction: firefly reporter light: higher = more light from androgen-responsive reporter; Renilla control light: higher = more constitutive control signal (cell number, transfection). Hit rule: 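Hit when the log firefly-to-Renilla ratio dropped or increased by a fixed fold versus the mean of GFP or LacZ controls across duplicate plates; lowering cut given as 1.5 and as 3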. Meaning of the calls: active = hit: reporter lowered or raised; inactive = no hit.
The screen tested about 24,000 reagents; this is a random part of those that have a named target and a result. In the full data, 246 (1%) were called active. 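Plates not normalised; calls are printed but the firefly/Renilla ratio behind them is not deposited; fold cut for lowering reported inconsistently.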 Raw values vary from plate to plate and are shown uncorrected. Unmarked entries are inactive. Names joined by + are all predicted targets of the reagent. No sequences are given here. Not stated in the record: the amount of reagent.

no.	predicted target	dsRNA	firefly reporter light, replicate 1	firefly reporter light, replicate 2	Renilla control light, replicate 1	Renilla control light, replicate 2
1	eIF3j	DRSC06107	1.23e6	9.77e5	1.72e6	1.67e6
2	Tbcb	DRSC06067	2.73e5	4.31e5	6.82e5	7.57e5
3	CG33792	DRSC38872	1.38e6	1.18e6	2.63e6	2.07e6
4	Tsp2A	DRSC18584	3.86e5	2.75e5	3.81e6	3.32e6
5	CG6865	DRSC10732	2.41e5	1.74e5	2.23e6	1.65e6
6	FucTD	DRSC08634	46416	79054	7.08e5	8.86e5
7	Kif3C	DRSC17209	2.15e5	2.88e5	3.53e6	2.66e6
8	Kif3C	DRSC17210	1.91e5	2.02e5	2.78e6	2.49e6
9	Tsf3	DRSC06849	7.66e5	7.08e5	1.23e6	9.59e5
10	Lsp1alpha	DRSC20258	4.58e5	3.66e5	3.50e6	3.26e6
11	Lsp1alpha	DRSC25329	4.83e5	3.49e5	4.89e5	5.85e5
12	CG17124	DRSC02580	4.25e5	3.52e5	2.15e6	2.26e6
13	CG17124	DRSC29139	7.55e5	5.32e5	1.66e6	1.12e6
14	CG5172	DRSC19936	4.47e5	4.00e5	3.18e6	3.10e6
15	CG5172	DRSC23493	1.19e6	1.14e6	8.24e5	1.18e6
16	CR18217	DRSC21506	7.98e5	5.43e5	2.72e6	1.98e6
17	CG11192	DRSC06057	85569	98409	9.58e5	1.24e6
18	CG11192	DRSC25902	3.42e5	5.66e5	8.99e5	9.63e5
19	CG31538	DRSC12059	67705	2.22e5	2.82e5	5.63e5
20	CG7215 + Prx5	DRSC16214	2.02e5	62529	1.69e6	1.20e6
21	CG7215 + Prx5	DRSC16215	25323	44854	4.57e5	6.19e5
22	CG15514	DRSC15053	75315	55353	8.72e5	6.19e5
23	CG15514	DRSC29785	3.73e5	3.26e5	1.00e6	1.24e6
24	Gr93c	DRSC14587	2.46e5	2.19e5	3.40e6	3.03e6
25	ninaB	DRSC16807	1.89e5	1.88e5	3.88e6	3.50e6
26	ninaB	DRSC27875	6.35e5	5.64e5	1.90e6	1.21e6
27	Jon99Fii	DRSC15430	98618	1.43e5	1.51e6	2.65e6
28	Hsp67Bc	DRSC11193	1.86e5	1.14e5	2.27e6	1.05e6
29	Hsp67Bc	DRSC28175	5.27e5	4.60e5	1.80e6	1.76e6
30	Dys	DRSC13364	8.90e5	8.32e5	1.47e6	1.33e6
31	Dys	DRSC15260	1.80e5	2.22e5	3.01e6	3.13e6
32	Dys	DRSC16218	1.67e5	1.89e5	2.65e6	3.21e6
33	Dys	DRSC16219	2.40e5	2.78e5	3.12e6	3.49e6
34	Dys	DRSC16220	1.78e5	1.06e5	2.84e6	2.00e6
35	Dys	DRSC16935	2.22e5	2.53e5	2.46e6	2.97e6
36	Dys	DRSC25148	6.25e5	6.95e5	7.47e5	7.93e5
37	CR14033	DRSC02358	1.73e6	1.73e6	1.31e6	2.16e6
38	CR14033	DRSC24988	8.90e5	8.55e5	1.18e6	1.18e6
39	CG3764	DRSC10375	32131	19543	2.07e5	2.24e5
40	CG32074	DRSC22246	6.30e5	7.72e5	1.65e6	1.27e6
41	CG32074	DRSC26504	3.72e5	3.26e5	7.98e5	8.54e5
42	CG32102	DRSC22015	9.56e5	7.42e5	1.97e6	1.33e6
43	CG30099	DRSC07039	72768	1.19e5	1.82e6	1.82e6
44	CG30099	DRSC26526	2.65e5	2.55e5	5.40e5	5.60e5
45	Jhbp11	DRSC15183	1.93e5	1.85e5	1.52e6	2.48e6
46	Jhbp11	DRSC29679	5.67e5	6.91e5	9.60e5	9.60e5
47	CG34012	DRSC38846	3.09e5	3.05e5	1.02e6	9.95e5
48	CG1632	DRSC17558	5.93e5	1.14e6	4.46e5	6.55e5
49	CG1632	DRSC18110	5.00e5	4.90e5	2.88e6	4.07e6
50	Acyp	DRSC01861	3.17e5	4.39e5	2.02e6	2.19e6
51	CG3108	DRSC18280	91430	1.08e5	1.14e6	7.18e5
52	Naa60	DRSC10301	1.89e5	1.86e5	1.78e6	1.81e6
53	Naa60	DRSC26416	3.48e5	2.59e5	6.36e5	6.87e5
54	yki	DRSC04437	6.49e5	1.65e5	1.65e6	7.03e5
55	yki	DRSC28304	3.79e5	3.53e5	1.03e6	1.12e6
56	mei-38	DRSC18564	1.26e5	1.62e5	3.41e6	3.87e6
57	CG31515	DRSC13610	1.24e5	1.46e5	2.74e5	2.62e5
58	tim	DRSC00841	6.51e5	8.47e5	1.51e6	1.29e6

Individual results from the entries so far:
Jhbp11 [DRSC29679], firefly reporter light, replicate 1 = 5.67e5
Under “firefly reporter light, replicate 1”, CG31515 [DRSC13610] is entered as 1.24e5
Entry of CG15514 [DRSC15053] in “Renilla control light, replicate 1”: 8.72e5
Kif3C [DRSC17210], Renilla control light, replicate 1 = 2.78e6
Result of CG11192 [DRSC25902] under “firefly reporter light, replicate 2”: 5.66e5
Under “Renilla control light, replicate 1”, CR14033 [DRSC24988] shows 1.18e6
